PubChem BioAssay AID1671195 – Yale University | 2021
Test: 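Regulators of LDL receptor activity judged by labelled LDL uptake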 (primary screen). System: human Huh7 hepatoma cells. Knock-down reagent: siRNA pool against human genes, 18 nM. Duration: about 2 to 2.5 days of knockdown, then 8 h LDL uptake. Challenge: DiI-labelled LDL at 30 µg/ml for 8 h, in lipoprotein-deficient serum medium. Read-out: 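Fluorescent LDL signal imaged in cells, scaled to the plate median, robust z-score for each replicate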. Direction: robust z-score: higher = more LDL uptake after knockdown. Call rule: 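a gene counts as active if at least two replicate z-scores exceed ±2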.
The deposit covers about 22,000 reagents; shown is a part drawn at random. Over the whole deposit, about 1,510 (6.9%) were called active. 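Active includes knockdowns raising or lowering LDL uptake; positive z-scores mean more uptake, negative mean less.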

KRTAP4-12 (GeneID 83755) showed robust z-score, replicate 1 = 1.01; robust z-score, replicate 2 = 0.115; robust z-score, replicate 3 = -0.448; inactive.
After knock-down of PHB2 (GeneID 11331), the record shows robust z-score, replicate 1 = -0.399; robust z-score, replicate 2 = -1.47; robust z-score, replicate 3 = -0.487; inactive.
Depletion of PRRT4 (GeneID 401399) gave: robust z-score, replicate 1 = -0.419; robust z-score, replicate 2 = -0.284; robust z-score, replicate 3 = -0.13; inactive.
After knock-down of SGSM3 (GeneID 27352) the results were robust z-score, replicate 1 = 2.36; robust z-score, replicate 2 = 0.466; robust z-score, replicate 3 = 1.97; active.
After knock-down of DCTN6 (GeneID 10671) the results were robust z-score, replicate 1 = 0.0926; robust z-score, replicate 2 = -0.709; robust z-score, replicate 3 = -0.966; inactive.
UBALD2 (GeneID 283991) showed robust z-score, replicate 1 = -0.903; robust z-score, replicate 2 = -0.79; robust z-score, replicate 3 = -0.507; inactive.
PROB1 (GeneID 389333) showed robust z-score, replicate 1 = -0.935; robust z-score, replicate 2 = -0.537; robust z-score, replicate 3 = -0.886; inactive.
Depletion of NIPA2 (GeneID 81614) resulted in: robust z-score, replicate 1 = 2.37; robust z-score, replicate 2 = 2.75; robust z-score, replicate 3 = 3.2; active.

Active calls, among the entries above:
SGSM3 (GeneID 27352) → robust z-score, replicate 1 = 2.36; robust z-score, replicate 2 = 0.466; robust z-score, replicate 3 = 1.97; Call = active
NIPA2 (GeneID 81614) → robust z-score, replicate 1 = 2.37; robust z-score, replicate 2 = 2.75; robust z-score, replicate 3 = 3.2; Call = active

Additional records follow.
With knock-down of PPP4R1L (GeneID 55370), the record shows robust z-score, replicate 1 = 0.267; robust z-score, replicate 2 = 0.385; robust z-score, replicate 3 = 3.35; inactive.
Silencing of STEAP1 (GeneID 26872) came out at: robust z-score, replicate 1 = 0.204; robust z-score, replicate 2 = -1.37; robust z-score, replicate 3 = -0.0894; inactive.
After knock-down of SYCP3 (GeneID 50511), the record shows robust z-score, replicate 1 = 0.203; robust z-score, replicate 2 = 1.63; robust z-score, replicate 3 = 0.638; inactive.
GREB1L (GeneID 80000) showed robust z-score, replicate 1 = -1.51; robust z-score, replicate 2 = -1.05; robust z-score, replicate 3 = -0.61; inactive.
LRRN3 (GeneID 54674) gave robust z-score, replicate 1 = 1.09; robust z-score, replicate 2 = 2.98; robust z-score, replicate 3 = 0.751; inactive.
Silencing of LOC387910 (retired record) (GeneID 387910) came out at: robust z-score, replicate 1 = -0.802; robust z-score, replicate 2 = -0.772; robust z-score, replicate 3 = -0.891; inactive.
HSPB3 (GeneID 8988) gave robust z-score, replicate 1 = 0.332; robust z-score, replicate 2 = 1.65; robust z-score, replicate 3 = 1.11; inactive.
Silencing of ZDBF2 (GeneID 57683) resulted in: robust z-score, replicate 1 = -0.716; robust z-score, replicate 2 = -1.27; robust z-score, replicate 3 = -1.2; inactive.
